{"source": "patent US20220091133A1", "about": "“METHODS AND ASSAYS FOR IMMUNE PHENOTYPING” (Washington University, priority 2020, published 2022)", "tested_on": "peripheral blood mononuclear cells (T cell IFN-γ production)", "type": "cell-based, human"}
{"smiles": "C[C@@H]1C[C@H]2[C@@H]3CCC4=CC(=O)C=C[C@]4(C)[C@@]3(F)[C@@H](O)C[C@]2(C)[C@@]1(O)C(=O)COP(=O)(O)O", "note": "[dexamethasone, dexamethasone phosphate]", "values": [{"measurement": "effect on the functional immune response on ELISpot", "result": "does not significantly affect"}, {"measurement": "number of functional T cells producing interferon-γ and intensity of the response", "result": "decrease significantly"}]}
